According to the supplement of paper PMC8728848:
This is one part of the list.

How the values were obtained:
Test in all cases: glycan array binding signal (z-score within array); higher = stronger binding
Details in all cases: glycan notation: IUPAC condensed, linker removed
[1] = target: GlcNAc(b1-3)Gal(b1-4)GlcNAc(b1-3)Gal(b1-4)GlcNAc(b1-3)GalNAc
How it was run: (§1)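 From the Consortium for Functional Glycomics database, 3228 arrays were curated, keeping only those whose protein sequence was available. Binding is given as a within-array Z-score averaged across arrays sharing a protein sequence and across linkers. Negative Z-scores can be read as non-binding.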

[2] = target: GlcNAc(b1-3)Gal(b1-4)GlcNAc(b1-3)GalNAc
How it was run: as §1

[3] = target: GlcNAc(b1-3)Gal(b1-4)GlcNAc(b1-3)[GlcNAc(b1-3)Gal(b1-4)GlcNAc(b1-3)]GalNAc
How it was run: as §1

[4] = target: GlcNAc(b1-3)Gal(b1-4)GlcNAc(b1-6)[Gal(b1-3)]GalNAc
How it was run: as §1

[5] = target: GlcNAc(b1-3)Gal(b1-4)GlcNAc(b1-6)[GlcNAc(b1-3)Gal(b1-3)]GalNAc
How it was run: as §1

[6] = target: GlcNAc(b1-3)Gal(b1-4)GlcNAc(b1-6)[GlcNAc(b1-3)]Gal(b1-4)GlcNAc
How it was run: as §1

GlcNAc(b1-3)GalNAc = target: GlcNAc(b1-3)GalNAc
How it was run: as §1

GlcNAc(b1-3)Man = target: GlcNAc(b1-3)Man
How it was run: as §1

[7] = target: GlcNAc(b1-3)[GlcNAc(b1-4)][GlcNAc(b1-6)]GlcNAc
How it was run: as §1

[8] = target: GlcNAc(b1-3)[GlcNAc(b1-6)]Gal(b1-4)GlcNAc
How it was run: as §1

[9] = target: GlcNAc(b1-3)[GlcNAc(b1-6)]GalNAc
How it was run: as §1

[10] = target: GlcNAc(b1-4)Gal(b1-4)GlcNAc
How it was run: as §1

GlcNAc(b1-4)GlcNAc = target: GlcNAc(b1-4)GlcNAc
How it was run: as §1

[11] = target: GlcNAc(b1-4)GlcNAc(b1-4)GlcNAc
How it was run: as §1

[12] = target: GlcNAc(b1-4)GlcNAc(b1-4)GlcNAc(b1-4)GlcNAc(b1-4)GlcNAc
How it was run: as §1

[13] = target: GlcNAc(b1-4)GlcNAc(b1-4)GlcNAc(b1-4)GlcNAc(b1-4)GlcNAc(b1-4)GlcNAc
How it was run: as §1

[14] = target: GlcNAc(b1-4)[GlcNAc(b1-6)]GalNAc
How it was run: as §1

[15] = target: GlcNAc(b1-6)Gal(b1-4)GlcNAc
How it was run: as §1

GlcNAc(b1-6)GalNAc = target: GlcNAc(b1-6)GalNAc
How it was run: as §1

[16] = target: GlcNAc6S(b1-3)Gal(b1-4)GlcNAc
How it was run: as §1

Kdn(a2-3)Gal(b1-3)GalNAc = target: Kdn(a2-3)Gal(b1-3)GalNAc
How it was run: as §1

Kdn(a2-3)Gal(b1-3)GlcNAc = target: Kdn(a2-3)Gal(b1-3)GlcNAc
How it was run: as §1

Kdn(a2-3)Gal(b1-4)Glc = target: Kdn(a2-3)Gal(b1-4)Glc
How it was run: as §1

Kdn(a2-3)Gal(b1-4)GlcNAc = target: Kdn(a2-3)Gal(b1-4)GlcNAc
How it was run: as §1

[17] = target: Kdn(a2-3)Gal(b1-4)[Fuc(a1-3)]GlcNAc
How it was run: as §1

Kdn(a2-6)Gal(b1-4)GlcNAc = target: Kdn(a2-6)Gal(b1-4)GlcNAc
How it was run: as §1

[18] = target: Man(a1-2)Man(a1-2)Man(a1-3)Man
How it was run: as §1

[19] = target: Man(a1-2)Man(a1-2)Man(a1-6)[Man(a1-3)]Man
How it was run: as §1

Man(a1-2)Man(a1-3)Man = target: Man(a1-2)Man(a1-3)Man
How it was run: as §1

[20] = target: Man(a1-2)Man(a1-3)[Man(a1-2)Man(a1-6)]Man
How it was run: as §1

[21] = target: Man(a1-2)Man(a1-3)[Man(a1-2)Man(a1-6)]Man(a1-6)[Man(a1-2)Man(a1-2)Man(a1-3)]Man
How it was run: as §1

[22] = target: Man(a1-2)Man(a1-3)[Man(a1-2)Man(a1-6)]Man(a1-6)[Man(a1-2)Man(a1-2)Man(a1-3)]Man(b1-4)GlcNAc(b1-4)GlcNAc
How it was run: as §1

[23] = target: Man(a1-2)Man(a1-3)[Man(a1-6)]Man(a1-6)[Man(a1-2)Man(a1-3)]Man(b1-4)GlcNAc(b1-4)GlcNAc
How it was run: as §1

[24] = target: Man(a1-2)Man(a1-6)[Man(a1-3)]Man(a1-6)[Man(a1-2)Man(a1-2)Man(a1-3)]Man
How it was run: as §1

[25] = target: Man(a1-2)Man(a1-6)[Man(a1-3)]Man(a1-6)[Man(a1-2)Man(a1-2)Man(a1-3)]Man(b1-4)GlcNAc(b1-4)GlcNAc
How it was run: as §1

Man(a1-3)[Man(a1-6)]Man = target: Man(a1-3)[Man(a1-6)]Man
How it was run: as §1

[26] = target: Man(a1-3)[Man(a1-6)]Man(a1-6)[Man(a1-2)Man(a1-3)]Man(b1-4)GlcNAc(b1-4)GlcNAc
How it was run: as §1

[27] = target: Man(a1-3)[Man(a1-6)]Man(a1-6)[Man(a1-3)]Man
How it was run: as §1

[28] = target: Man(a1-3)[Man(a1-6)]Man(a1-6)[Man(a1-3)]Man(b1-4)GlcNAc(b1-4)GlcNAc
How it was run: as §1

[29] = target: Man(a1-3)[Man(a1-6)]Man(b1-4)GlcNAc(b1-4)GlcNAc
How it was run: as §1

[30] = target: Man(a1-3)[Man(a1-6)]Man(b1-4)GlcNAc(b1-4)[Fuc(a1-6)]GlcNAc
How it was run: as §1

Man(a1-6)Man = target: Man(a1-6)Man
How it was run: as §1

Man(b1-4)GlcNAc = target: Man(b1-4)GlcNAc
How it was run: as §1

MurNAc(b1-4)GlcNAc = target: MurNAc(b1-4)GlcNAc
How it was run: as §1

Neu5Ac(a2-3)Gal = target: Neu5Ac(a2-3)Gal
How it was run: as §1

B1: Mermaid1 (Stilbonema majum) (protein)
chain: MGSSHHHHHHSSGLVPRGSHMAASGWLRSPQGTVVKLYRRSLSWSKADEFCKDVDGRLVVDRTADMHLFLIKNVLKEKKSRVWVGLRRTAPHSRTWIWSDGTRQNEDDLDANLWLRDEPNDAAGEEECALFMYSPWEKAWGLNDYLCRGGCRSYQFICEKWIR
Question: With B1 as the binder, how does the “glycan array binding signal (z-score)” value [1] read?
Answer: -0.581

Question: What about the “glycan array binding signal (z-score)” value [2] of the same binder?
Answer: 0.277

Question: What about the “glycan array binding signal (z-score)” value [3] of the same binder?
Answer: -0.024

Question: What about the “glycan array binding signal (z-score)” value [4] of the same binder?
Answer: -0.29

Question: What about the “glycan array binding signal (z-score)” value [5] of the same binder?
Answer: -0.841

Question: What about the “glycan array binding signal (z-score)” value [6] of the same binder?
Answer: -0.656

Question: What about the “glycan array binding signal (z-score)” value (GlcNAc(b1-3)GalNAc) of the same binder?
Answer: -0.466

Question: And the “glycan array binding signal (z-score)” value (GlcNAc(b1-3)Man)?
Answer: 0.396

Question: What about the “glycan array binding signal (z-score)” value [7] of the same binder?
Answer: 1.23

Question: And the “glycan array binding signal (z-score)” value [8]?
Answer: -0.198

Question: What about the “glycan array binding signal (z-score)” value [9] of the same binder?
Answer: -0.273

Question: What about the “glycan array binding signal (z-score)” value [10] of the same binder?
Answer: 0.411

Question: And the “glycan array binding signal (z-score)” value (GlcNAc(b1-4)GlcNAc)?
Answer: 1.33

Question: And the “glycan array binding signal (z-score)” value [11]?
Answer: -0.081

Question: What about the “glycan array binding signal (z-score)” value [12] of the same binder?
Answer: 1.35

Question: And the “glycan array binding signal (z-score)” value [13]?
Answer: -0.183

Question: What about the “glycan array binding signal (z-score)” value [14] of the same binder?
Answer: -0.626

Question: What about the “glycan array binding signal (z-score)” value [15] of the same binder?
Answer: -0.208

Question: And the “glycan array binding signal (z-score)” value (GlcNAc(b1-6)GalNAc)?
Answer: 0.164

Question: And the “glycan array binding signal (z-score)” value [16]?
Answer: -0.7

Question: And the “glycan array binding signal (z-score)” value (Kdn(a2-3)Gal(b1-3)GalNAc)?
Answer: 0.551

Question: What about the “glycan array binding signal (z-score)” value (Kdn(a2-3)Gal(b1-3)GlcNAc) of the same binder?
Answer: -0.215

Question: And the “glycan array binding signal (z-score)” value (Kdn(a2-3)Gal(b1-4)Glc)?
Answer: 0.324

Question: And the “glycan array binding signal (z-score)” value (Kdn(a2-3)Gal(b1-4)GlcNAc)?
Answer: 1.88

Question: And the “glycan array binding signal (z-score)” value [17]?
Answer: 0.037

Question: And the “glycan array binding signal (z-score)” value (Kdn(a2-6)Gal(b1-4)GlcNAc)?
Answer: -0.307

Question: What about the “glycan array binding signal (z-score)” value [18] of the same binder?
Answer: -0.695

Question: And the “glycan array binding signal (z-score)” value [19]?
Answer: -0.609

Question: What about the “glycan array binding signal (z-score)” value (Man(a1-2)Man(a1-3)Man) of the same binder?
Answer: -0.708

Question: What about the “glycan array binding signal (z-score)” value [20] of the same binder?
Answer: -0.613

Question: And the “glycan array binding signal (z-score)” value [21]?
Answer: -0.745

Question: And the “glycan array binding signal (z-score)” value [22]?
Answer: 0.06

Question: And the “glycan array binding signal (z-score)” value [23]?
Answer: -0.285

Question: And the “glycan array binding signal (z-score)” value [24]?
Answer: -0.378

Question: What about the “glycan array binding signal (z-score)” value [25] of the same binder?
Answer: 0.373

Question: What about the “glycan array binding signal (z-score)” value (Man(a1-3)[Man(a1-6)]Man) of the same binder?
Answer: -0.454

Question: What about the “glycan array binding signal (z-score)” value [26] of the same binder?
Answer: -0.449

Question: What about the “glycan array binding signal (z-score)” value [27] of the same binder?
Answer: 1.02

Question: And the “glycan array binding signal (z-score)” value [28]?
Answer: 0.389

Question: What about the “glycan array binding signal (z-score)” value [29] of the same binder?
Answer: -0.449

Question: And the “glycan array binding signal (z-score)” value [30]?
Answer: -0.385

Question: And the “glycan array binding signal (z-score)” value (Man(a1-6)Man)?
Answer: 0.014

Question: And the “glycan array binding signal (z-score)” value (Man(b1-4)GlcNAc)?
Answer: 8.49

Question: And the “glycan array binding signal (z-score)” value (MurNAc(b1-4)GlcNAc)?
Answer: 1.1

Question: What about the “glycan array binding signal (z-score)” value (Neu5Ac(a2-3)Gal) of the same binder?
Answer: -0.41
